Some of the results follow.
Legend:
Experiment in all cases: glycan array binding signal (z-score within array); higher = stronger binding
Conditions in all cases: glycan notation: IUPAC condensed, linker removed
[1] = molecular target: Gal(a1-3)[Gal(a1-4)]Gal(b1-4)GlcNAc
Procedure, shortened: (§1)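 The binding signal is a Z-score computed within each array. Data were drawn from 3228 arrays in the Consortium for Functional Glycomics database, restricted to those with a known protein sequence. Scores were averaged over arrays of the same protein sequence at different concentrations or buffers, and over linkers, and negative values can be taken as non-binding.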

[2] = molecular target: Gal(a1-4)Gal(b1-3)GlcNAc(b1-2)Man(a1-3)[Gal(a1-4)Gal(b1-3)GlcNAc(b1-2)Man(a1-6)]Man(b1-4)GlcNAc(b1-4)GlcNAc
Procedure, shortened: as §1

Gal(a1-4)Gal(b1-4)Glc = molecular target: Gal(a1-4)Gal(b1-4)Glc
Procedure, shortened: as §1

Gal(a1-4)Gal(b1-4)GlcNAc = molecular target: Gal(a1-4)Gal(b1-4)GlcNAc
Procedure, shortened: as §1

[3] = molecular target: Gal(a1-4)Gal(b1-4)GlcNAc(b1-2)Man(a1-3)[Gal(a1-4)Gal(b1-4)GlcNAc(b1-2)Man(a1-6)]Man(b1-4)GlcNAc(b1-4)GlcNAc
Procedure, shortened: as §1

[4] = molecular target: Gal(a1-4)Gal(b1-4)GlcNAc(b1-3)Gal(b1-4)Glc
Procedure, shortened: as §1

Gal(a1-4)GlcNAc = molecular target: Gal(a1-4)GlcNAc
Procedure, shortened: as §1

Gal(a1-6)Glc = molecular target: Gal(a1-6)Glc
Procedure, shortened: as §1

Gal(b1-2)Gal = molecular target: Gal(b1-2)Gal
Procedure, shortened: as §1

Gal(b1-3)Gal = molecular target: Gal(b1-3)Gal
Procedure, shortened: as §1

Gal(b1-3)Gal(b1-4)GlcNAc = molecular target: Gal(b1-3)Gal(b1-4)GlcNAc
Procedure, shortened: as §1

[5] = molecular target: Gal(b1-3)Gal(b1-4)GlcNAc(b1-2)Man(a1-3)[Gal(b1-3)Gal(b1-4)GlcNAc(b1-2)Man(a1-6)]Man(b1-4)GlcNAc(b1-4)GlcNAc
Procedure, shortened: as §1

Gal(b1-3)GalNAc = molecular target: Gal(b1-3)GalNAc
Procedure, shortened: as §1

[6] = molecular target: Gal(b1-3)GalNAc(a1-3)[Fuc(a1-2)]Gal(b1-4)Glc
Procedure, shortened: as §1

[7] = molecular target: Gal(b1-3)GalNAc(a1-3)[Fuc(a1-2)]Gal(b1-4)GlcNAc
Procedure, shortened: as §1

Gal(b1-3)GalNAc(b1-3)Gal = molecular target: Gal(b1-3)GalNAc(b1-3)Gal
Procedure, shortened: as §1

[8] = molecular target: Gal(b1-3)GalNAc(b1-3)Gal(a1-4)Gal(b1-4)Glc
Procedure, shortened: as §1

[9] = molecular target: Gal(b1-3)GalNAc(b1-4)Gal(b1-4)Glc
Procedure, shortened: as §1

[10] = molecular target: Gal(b1-3)GalNAc(b1-4)[Neu5Ac(a2-3)]Gal(b1-4)Glc
Procedure, shortened: as §1

Gal(b1-3)GlcNAc = molecular target: Gal(b1-3)GlcNAc
Procedure, shortened: as §1

[11] = molecular target: Gal(b1-3)GlcNAc(a1-3)Gal(b1-4)GlcNAc
Procedure, shortened: as §1

[12] = molecular target: Gal(b1-3)GlcNAc(a1-6)Gal(b1-4)GlcNAc
Procedure, shortened: as §1

Gal(b1-3)GlcNAc(b1-2)Man = molecular target: Gal(b1-3)GlcNAc(b1-2)Man
Procedure, shortened: as §1

[13] = molecular target: Gal(b1-3)GlcNAc(b1-2)Man(a1-3)[Gal(b1-3)GlcNAc(b1-2)Man(a1-6)]Man(b1-4)GlcNAc(b1-4)GlcNAc
Procedure, shortened: as §1

[14] = molecular target: Gal(b1-3)GlcNAc(b1-2)Man(a1-3)[Gal(b1-3)GlcNAc(b1-2)Man(a1-6)]Man(b1-4)GlcNAc(b1-4)[Fuc(a1-6)]GlcNAc
Procedure, shortened: as §1

[15] = molecular target: Gal(b1-3)GlcNAc(b1-2)Man(a1-3)[GlcNAc(b1-4)][Gal(b1-3)GlcNAc(b1-2)Man(a1-6)]Man(b1-4)GlcNAc(b1-4)GlcNAc
Procedure, shortened: as §1

[16] = molecular target: Gal(b1-3)GlcNAc(b1-2)[Gal(b1-3)GlcNAc(b1-6)]Man(a1-6)[Gal(b1-3)GlcNAc(b1-2)Man(a1-3)]Man(b1-4)GlcNAc(b1-4)GlcNAc
Procedure, shortened: as §1

[17] = molecular target: Gal(b1-3)GlcNAc(b1-3)Gal(b1-3)GlcNAc
Procedure, shortened: as §1

[18] = molecular target: Gal(b1-3)GlcNAc(b1-3)Gal(b1-4)Glc
Procedure, shortened: as §1

[19] = molecular target: Gal(b1-3)GlcNAc(b1-3)Gal(b1-4)GlcNAc
Procedure, shortened: as §1

[20] = molecular target: Gal(b1-3)GlcNAc(b1-3)Gal(b1-4)GlcNAc(b1-2)Man(a1-3)[Gal(b1-3)GlcNAc(b1-3)Gal(b1-4)GlcNAc(b1-2)Man(a1-6)]Man(b1-4)GlcNAc(b1-4)GlcNAc
Procedure, shortened: as §1

[21] = molecular target: Gal(b1-3)GlcNAc(b1-3)Gal(b1-4)GlcNAc(b1-2)[Gal(b1-3)GlcNAc(b1-3)Gal(b1-4)GlcNAc(b1-6)]Man(a1-6)[Gal(b1-3)GlcNAc(b1-3)Gal(b1-4)GlcNAc(b1-2)Man(a1-3)]Man(b1-4)GlcNAc(b1-4)[Fuc(a1-6)]GlcNAc
Procedure, shortened: as §1

[22] = molecular target: Gal(b1-3)GlcNAc(b1-3)Gal(b1-4)GlcNAc(b1-3)Gal(b1-4)GlcNAc(b1-2)[Gal(b1-3)GlcNAc(b1-3)Gal(b1-4)GlcNAc(b1-3)Gal(b1-4)GlcNAc(b1-6)]Man(a1-6)[Gal(b1-3)GlcNAc(b1-3)Gal(b1-4)GlcNAc(b1-3)Gal(b1-4)GlcNAc(b1-2)Man(a1-3)]Man(b1-4)GlcNAc(b1-4)[Fuc(a1-6)]GlcNAc
Procedure, shortened: as §1

[23] = molecular target: Gal(b1-3)GlcNAc(b1-3)Gal(b1-4)GlcNAc(b1-6)[Gal(b1-3)GlcNAc(b1-3)]Gal(b1-4)Glc
Procedure, shortened: as §1

[24] = molecular target: Gal(b1-3)GlcNAc(b1-3)Gal(b1-4)[Fuc(a1-3)]GlcNAc(b1-6)[Gal(b1-3)GlcNAc(b1-3)]Gal(b1-4)Glc
Procedure, shortened: as §1

[25] = molecular target: Gal(b1-3)GlcNAc(b1-3)GalNAc
Procedure, shortened: as §1

[26] = molecular target: Gal(b1-3)GlcNAc(b1-6)Gal(b1-4)GlcNAc
Procedure, shortened: as §1

[27] = molecular target: Gal(b1-3)GlcNAc(b1-6)GalNAc
Procedure, shortened: as §1

[28] = molecular target: Gal(b1-3)GlcNAc(b1-6)[Gal(b1-3)]GalNAc
Procedure, shortened: as §1

Gal(b1-3)GlcNAc6S = molecular target: Gal(b1-3)GlcNAc6S
Procedure, shortened: as §1

[29] = molecular target: Gal(b1-3)[Fuc(a1-4)]GlcNAc
Procedure, shortened: as §1

[30] = molecular target: Gal(b1-3)[Fuc(a1-4)]GlcNAc(b1-2)Man
Procedure, shortened: as §1

[31] = molecular target: Gal(b1-3)[Fuc(a1-4)]GlcNAc(b1-2)Man(a1-3)[Gal(b1-3)[Fuc(a1-4)]GlcNAc(b1-2)Man(a1-6)]Man(b1-4)GlcNAc(b1-4)[Fuc(a1-6)]GlcNAc
Procedure, shortened: as §1

[32] = molecular target: Gal(b1-3)[Fuc(a1-4)]GlcNAc(b1-3)Gal(b1-3)[Fuc(a1-4)]GlcNAc
Procedure, shortened: as §1

[33] = molecular target: Gal(b1-3)[Fuc(a1-4)]GlcNAc(b1-3)Gal(b1-4)GlcNAc
Procedure, shortened: as §1

B1: Gal 10 (Homo sapiens), Q05315 (protein)
chain: MSLLPVPYTEAASLSTGSTVTIKGRPLVCFLNEPYLQVDFHTEMKEESDIVFHFQVCFGRRVVMNSREYGAWKQQVESKNMPFQDGQEFELSISVLPDKYQVMVNGQSSYTFDHRIKPEAVKMVQVWRDISLTKFNVSYLKR
glycan array binding signal (z-score) [1]: 0.625 | glycan array binding signal (z-score) [2]: 0.114 | glycan array binding signal (z-score) (Gal(a1-4)Gal(b1-4)Glc): -0.717 | glycan array binding signal (z-score) (Gal(a1-4)Gal(b1-4)GlcNAc): -0.337 | glycan array binding signal (z-score) [3]: -0.131 | glycan array binding signal (z-score) [4]: -0.109 | glycan array binding signal (z-score) (Gal(a1-4)GlcNAc): -0.059 | glycan array binding signal (z-score) (Gal(a1-6)Glc): -0.205 | glycan array binding signal (z-score) (Gal(b1-2)Gal): -0.095 | glycan array binding signal (z-score) (Gal(b1-3)Gal): -0.045 | glycan array binding signal (z-score) (Gal(b1-3)Gal(b1-4)GlcNAc): -0.043 | glycan array binding signal (z-score) [5]: -0.754 | glycan array binding signal (z-score) (Gal(b1-3)GalNAc): 0.117 | glycan array binding signal (z-score) [6]: 0.424 | glycan array binding signal (z-score) [7]: 0.496 | glycan array binding signal (z-score) (Gal(b1-3)GalNAc(b1-3)Gal): -0.683 | glycan array binding signal (z-score) [8]: -0.196 | glycan array binding signal (z-score) [9]: 0.344 | glycan array binding signal (z-score) [10]: -0.137 | glycan array binding signal (z-score) (Gal(b1-3)GlcNAc): -0.437 | glycan array binding signal (z-score) [11]: 0.167 | glycan array binding signal (z-score) [12]: 0.321 | glycan array binding signal (z-score) (Gal(b1-3)GlcNAc(b1-2)Man): -0.235 | glycan array binding signal (z-score) [13]: 0.125 | glycan array binding signal (z-score) [14]: 0.084 | glycan array binding signal (z-score) [15]: 0.208 | glycan array binding signal (z-score) [16]: 0.32 | glycan array binding signal (z-score) [17]: -0.609 | glycan array binding signal (z-score) [18]: -0.283 | glycan array binding signal (z-score) [19]: -0.622 | glycan array binding signal (z-score) [20]: 1.6 | glycan array binding signal (z-score) [21]: 0.035 | glycan array binding signal (z-score) [22]: 0.55 | glycan array binding signal (z-score) [23]: 0 | glycan array binding signal (z-score) [24]: 0.128 | glycan array binding signal (z-score) [25]: -0.812 | glycan array binding signal (z-score) [26]: -0.266 | glycan array binding signal (z-score) [27]: -0.5 | glycan array binding signal (z-score) [28]: 1.27 | glycan array binding signal (z-score) (Gal(b1-3)GlcNAc6S): -0.063 | glycan array binding signal (z-score) [29]: 0.455 | glycan array binding signal (z-score) [30]: -0.203 | glycan array binding signal (z-score) [31]: 0.601 | glycan array binding signal (z-score) [32]: 1.04 | glycan array binding signal (z-score) [33]: -0.651

From the supplement of paper PMC8728848
